PubChem BioAssay AID1224830, NIAID – 2016

Test: 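Genes whose knock-down alters the TNF-alpha reporter response to LPS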 (primary screen)
System: human THP-1 monocytic leukaemia cells, TNF dual-luciferase reporter clone, PMA-differentiated to macrophage-like cells
Reagent: siRNA pool against human genes, 50 nM
Time to read-out: LPS for 4 h, given about 3 days after siRNA transfection
Conditions: bacterial LPS (TLR4 ligand), 10 ng/ml
Measured: 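TNF firefly reporter luminescence divided by renilla, normalised to the plate median, then turned into a robust z-score for each replicate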
Scale: TNF reporter robust z-score: higher = stronger TNF reporter response to LPS
Hit rule: 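Each well counts as active if its z-score is over 2.8 or under -1.5; controls are left without a call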
This is an unselected part of about 18,000 deposited reagents. Over the whole deposit, about 2,900 (16%) were called active. 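Calls are made per well; low scores hint the gene aids the LPS response, high scores that it dampens it.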 Unmarked entries are inactive. Repeated entries: four replicate wells of each siRNA pool.

With knock-down of DLK2 the results were TNF reporter robust z-score 0.21.
After knock-down of DLK2, the record shows TNF reporter robust z-score 0.9.
Silencing of DLK2 resulted in: TNF reporter robust z-score 0.27.
After knock-down of DLK2, the screen gave TNF reporter robust z-score 1.17.
After knock-down of PIP5K1A, the screen gave TNF reporter robust z-score 0.35.
For PIP5K1A, the values are TNF reporter robust z-score 1.18.
PIP5K1A gave TNF reporter robust z-score 1.29.
PIP5K1A showed TNF reporter robust z-score 0.11.
Knock-down of MEA1 gave: TNF reporter robust z-score 0.
Knock-down of MEA1 came out at: TNF reporter robust z-score -0.39.
MEA1 scored TNF reporter robust z-score -0.66.
Silencing of MEA1 resulted in: TNF reporter robust z-score 0.2.
With knock-down of NR1D2, the screen gave TNF reporter robust z-score -1.34.
Silencing of NR1D2 came out at: TNF reporter robust z-score -0.83.
For NR1D2, the values are TNF reporter robust z-score -0.72.
NR1D2 scored TNF reporter robust z-score -0.47.
With knock-down of CNTNAP1, the screen gave TNF reporter robust z-score 0.24.
With knock-down of CNTNAP1, the record shows TNF reporter robust z-score -0.24.
With knock-down of CNTNAP1, the screen gave TNF reporter robust z-score -0.66.
CNTNAP1 scored TNF reporter robust z-score -0.01.
For ADAD1, the entry reads TNF reporter robust z-score -0.49.
After knock-down of ADAD1, the record shows TNF reporter robust z-score -0.68.
With knock-down of ADAD1, the screen gave TNF reporter robust z-score -0.35.
ADAD1 scored TNF reporter robust z-score 0.08.
After knock-down of OR6C4 the results were TNF reporter robust z-score -0.67.
With knock-down of OR6C4, the screen gave TNF reporter robust z-score -0.31.
For OR6C4, the entry reads TNF reporter robust z-score -0.77.
Against OR6C4 the deposit lists TNF reporter robust z-score -0.38.
Depletion of ARHGDIA came out at: TNF reporter robust z-score -0.15.
Against ARHGDIA, the entry reads TNF reporter robust z-score 1.16.
Silencing of ARHGDIA came out at: TNF reporter robust z-score 0.37.
Silencing of ARHGDIA resulted in: TNF reporter robust z-score 0.19.
Against SH3GLB1 the deposit lists TNF reporter robust z-score -1.48.
For SH3GLB1, the entry reads TNF reporter robust z-score -0.64.
Against SH3GLB1 the deposit lists TNF reporter robust z-score -1.05.
For SH3GLB1 the deposit lists TNF reporter robust z-score -1.
Depletion of ADPRM gave: TNF reporter robust z-score -0.5.
Depletion of ADPRM resulted in: TNF reporter robust z-score -0.08.
ADPRM gave TNF reporter robust z-score 0.11.
Knock-down of ADPRM resulted in: TNF reporter robust z-score -0.02.
Depletion of SCG5 resulted in: TNF reporter robust z-score 1.68.
After knock-down of SCG5, the record shows TNF reporter robust z-score 1.3.
Silencing of SCG5 gave: TNF reporter robust z-score 0.76.
Knock-down of GLIPR2 came out at: TNF reporter robust z-score -1.14.
Depletion of GLIPR2 came out at: TNF reporter robust z-score -1.63 (active).
GLIPR2 showed TNF reporter robust z-score -0.94.
GLIPR2 showed TNF reporter robust z-score -0.54.

7 entries from above, set out differently.
| target gene | TNF reporter robust z-score |
| --- | --- |
| ADAD1 | -0.68 |
| ADAD1 | -0.35 |
| ADAD1 | 0.08 |
| OR6C4 | -0.67 |
| OR6C4 | -0.31 |
| OR6C4 | -0.77 |
| OR6C4 | -0.38 |
